Reference: PubChem BioAssay AID2685 (National Center for Advancing Translational Sciences (NCATS), 2010)
The list shows a part of the results. Further columns of the screen follow, without active or inactive calls. Compounds called inactive in the main read-out are mostly missing here. Words in brackets tell the shape of the fitted curve; partial curves, single points and poor fits give uncertain potencies.

Assay: qHTS Assay for Lipid Storage Modulators in Drosophila S3 Cells;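 as to cell number change: cells counted by Cell Tracker Red CMTPX staining in the red channel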
Details: BODIPY lipid droplet fluorescence, 18-24 h; for cell number change: measured here: cell count max response, cells fed with added oleic acid
Procedure, shortened: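 Drosophila S3 cells loaded with oleic acid (400 uM, as added) and compounds at several concentrations; lipid droplets imaged by 488-nm laser-scanning cytometry, 500–530 nm intensity and object ratio to cell channel. Percent activity normalized to 20 uM Triacsin C.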

[1] = measured here: lipid fluorescence (Fed channel) AC50, cells fed with added oleic acid
[2] = measured here: cell number channel AC50, cells fed with added oleic acid

| SMILES | AC50 [1] | cell number change [%] | AC50 [2] |
| --- | --- | --- | --- |
| CC(=O)N1CCN(Cc2nc3cc(Cl)ccc3c(=O)[nH]2)CC1 | 29.1 µM [rising, single point] | – | – |
| Cc1ccc(Cl)cc1NC(=O)CCS(=O)(=O)c1cccc2nonc12 | – | 29.6 | – |
| CC1CCCCC12NC(=O)N(CC(=O)OCc1cccc(F)c1)C2=O (stereo unspecified) | 5.8 µM [rising, partial curve] | 12.9 | – |
| O=C(CCC(=O)N1CCOCC1)NCCc1ccc(F)cc1 | 0.58 µM [falling, single point] | -0.211 | – |
| CC(=O)c1ccc(NC(=O)C(C)Nc2ccc(Cl)cc2)cc1 (stereo unspecified) | 0.82 µM [rising, full curve, poor fit] | 12.3 | – |
| Cc1ccc(-n2cccc2C(=S)N=P(N(C)C)(N(C)C)N(C)C)cc1 | 1.03 µM [falling, full curve] | -30 | – |
| CCOC(=O)C1=C(C)Nc2nc3ccccc3n2C1c1ccccc1 (stereo unspecified) | – | – | 0.00411 µM [rising, full curve, poor fit] |
| COc1ccc(C(=O)OCC(=O)NC2CCCC2)c(OC)c1 | 6.51 µM [rising, single point] | – | – |
| CC(C)(C)N1CCC1CN (stereo unspecified) | 29.1 µM [falling, single point] | -28.3 | – |
| CC(C)c1cc(Br)ccc1OCCCN1C(=O)NC(C)(C)C1=O | 29.1 µM [falling, single point] | – | 2.31 µM [rising, partial curve] |
| Cc1nn(C2CCS(=O)(=O)C2)c2nc(C3CC3)cc(C(=O)Nc3ccc(C(N)=O)cc3)c12 (stereo unspecified) | – | 39.1 | 29.1 µM [rising, single point] |
| CN(CC(=O)Nc1ccc2c(c1)OCCO2)S(=O)(=O)c1cccc2cccnc12 | 0.291 µM [falling, partial curve] | -9.39 | 0.517 µM [falling, partial curve] |
| Cc1ccnc(NC(=S)N2CCN(c3cccc(C(F)(F)F)c3)CC2)c1 | – | 12.1 | 0.259 µM [rising, full curve, poor fit] |
| CNC(=O)C1CC(=O)N(CCc2ccccc2)C(=Nc2ccc(OC)cc2)S1 (stereo unspecified) | 3.26 µM [falling, single point] | -19.3 | 1.64 µM [falling, partial curve, poor fit] |
| Cc1ccc(NC(=O)N2CCSc3ccccc32)cc1 | – | 32.1 | 16.4 µM [rising, single point] |
| COc1ccc(OC)c(-n2c(=S)[nH]c3cc(C(=O)N4CCC(C(N)=O)CC4)ccc3c2=O)c1 | 0.651 µM [falling, full curve, poor fit] | -33.9 | 0.231 µM [falling, full curve, poor fit] |
| COc1ccc(C(=O)O)cc1NCc1cccnc1 | 0.58 µM [rising, single point] | 8.84 | – |
| CCCCn1c(N)c(N(CC(C)C)C(=O)CC(NC(=O)c2ccccc2)c2ccccc2)c(=O)[nH]c1=O (stereo unspecified) | – | -7 | – |
| COc1ccccc1N1CCN(/N=C/c2ccc(O)c(O)c2)CC1 | 20.6 µM [falling, single point] | -16 | – |
| Clc1cccc(Cl)c1CO/N=C/c1c(-c2ccccc2)nc2n1CCS2 | – | 9.77 | – |

| SMILES | AC50 [1] | cell number change [%] | AC50 [2] |
| --- | --- | --- | --- |
| COc1ccc2nc(NC(=O)c3ccc(NS(=O)(=O)c4cccs4)cc3)sc2c1 | – | 47.2 | 29.1 µM [rising, single point] |
| CC(=O)c1ccccc1Oc1cc(NN2CCCCC2)c([N+](=O)[O-])cc1[N+](=O)[O-] | 29.1 µM [rising, single point] | -2.99 | – |
| COc1cccc(NC(=O)Nc2nc(SC(C)(C)C)ns2)c1 | 6.51 µM [falling, single point] | -41.1 | 14.6 µM [falling, single point] |
| O=C(CN1C(=O)/C(=C/c2cccc(Br)c2)SC1=S)NC1=NCCS1 | – | 15.4 | – |
| O=C(N/N=C/c1ccc2c(c1)OCO2)c1ccc(NC(=O)c2ccccc2Cl)cc1 | 29.1 µM [falling, single point] | 15 | – |
| Cc1ccc(S(=O)(=O)N2CCOCC2)cc1C(=O)OC1CCCCC1=O (stereo unspecified) | – | -32.3 | 29.1 µM [falling, single point] |
| O=C(O/N=C1\CCCc2ccccc21)c1cccs1 | 2.06 µM [falling, partial curve] | 22.4 | – |
| CC(C)NC(=O)C(=O)Nc1cc2c3c(c1)CCC(=O)N3CCC2 | 6.51 µM [falling, single point] | – | – |
| C=CCn1c(COc2ccccc2F)nnc1SCC(=O)c1c[nH]c2ccccc12 | 20.6 µM [falling, partial curve] | -10.7 | – |
| COc1ccc(OC)c(C(C(=O)NC2CCCCC2)N(C(=O)c2snc(C(N)=O)c2N)c2ccccc2OC)c1 (stereo unspecified) | 29.1 µM [falling, single point] | 467 | – |
| O=C(O)CC(C(=O)Nc1ccc(Cl)c(Cl)c1)C1CCCO1 (stereo unspecified) | 18.4 µM [falling, partial curve] | – | – |
| Cc1ccc(-c2nc(-c3ccccc3)no2)cc1 | – | -0.229 | – |
| Cc1ccc(/C=N/n2c(-c3ccncc3)n[nH]c2=S)cc1 | 1.84 µM [rising, single point] | 52.1 | 5.17 µM [rising, full curve] |
| CCn1c(CC(=O)Nc2cccc(Cl)c2Cl)nnc1SCCOc1ccc(OC)cc1 | – | -12.9 | – |
| CCC(C)N(C(=O)CSc1nnc2ccccn12)C1CCS(=O)(=O)C1 (stereo unspecified) | – | -15.3 | – |
| COC(=O)C(C)(C)ONC(=O)Nc1ccccc1Cl | 5.17 µM [falling, full curve] | 5.46 | 0.103 µM [falling, full curve, poor fit] |
| Cc1cc(C)n(-c2ccc(C(=O)Nc3ccc(C)c(S(=O)(=O)N4CCOCC4)c3)cc2)n1 | 4.61 µM [falling, single point] | -29.6 | – |
| CC(C)C(CO)NC(=O)CC(=O)NC(CO)C(C)C (stereo unspecified) | 29.1 µM [falling, single point] | 1.36 | – |
| Cc1cc(C(=O)N2CCCC(Nc3ccccc3)C2)c2ccc(F)cc2n1 (stereo unspecified) | 4.11 µM [falling, single point] | – | – |

At a glance, part of the list above:

| SMILES | AC50 [1] | cell number change [%] | AC50 [2] |
| --- | --- | --- | --- |
| CC(=O)N1CCN(Cc2nc3cc(Cl)ccc3c(=O)[nH]2)CC1 | 29.1 µM [rising, single point] | – | – |
| Cc1ccc(Cl)cc1NC(=O)CCS(=O)(=O)c1cccc2nonc12 | – | 29.6 | – |
